In paper PMC7862700:
The list shows a part of the results, in another mix than the full data. At the low end of the ranking the order means little.

Sequences of proteins named here, by UniProt entry; tags and fusion partners are left off. A change or cut given only in a name is not applied to a line headed by its entry.
UniProt P41212: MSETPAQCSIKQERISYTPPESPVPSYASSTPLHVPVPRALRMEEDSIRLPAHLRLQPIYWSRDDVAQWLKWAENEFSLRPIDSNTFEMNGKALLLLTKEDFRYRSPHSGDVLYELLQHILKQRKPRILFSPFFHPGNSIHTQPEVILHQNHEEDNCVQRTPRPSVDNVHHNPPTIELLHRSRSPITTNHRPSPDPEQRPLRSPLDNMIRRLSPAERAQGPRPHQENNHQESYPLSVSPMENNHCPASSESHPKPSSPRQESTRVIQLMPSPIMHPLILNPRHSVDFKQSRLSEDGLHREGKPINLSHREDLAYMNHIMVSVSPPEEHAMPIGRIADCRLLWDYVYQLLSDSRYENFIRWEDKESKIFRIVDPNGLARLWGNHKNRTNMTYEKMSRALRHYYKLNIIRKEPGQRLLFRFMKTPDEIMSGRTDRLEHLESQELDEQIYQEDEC

What follows are sequences tested against ETV6 (UniProt P41212) (assay: DAPPL (digital affinity profiling via proximity ligation, sequencing)). Conditions: 10 mM Tris-HCl pH 7.5, 50 mM NaCl, 1 mM DTT, 4% glycerol, room temperature, 30 min; GST-TFs on glutathione beads, 16-mer random dsDNA library, 0.1% …; high values mean tight binding; double strand, one strand shown; scale: fold enrichment (6-mer frequency, TF over GST control).

Sequence | binding signal
TCCAAG | 1.03
ACATAA | 1.08
GGAAAT | 3.32
CCCCTA | 1.22
CCCCTC | 1.28
GCCTAA | 1.13
TAACCA | 1.04
TCCTTA | 1.63
ACCTGA | 1.09
TCGAAC | 1
ATTTTC | 1.43
AATCCG | 1.49
GTCCCA | 1.03
CCCCCC | 1.06
TTTATC | 1.24
CAAACA | 1.1
CTAGCC | 0.921
AGTGTC | 1.01
ATAAGA | 1.07
TTCCGA | 1.85

Sequence | binding signal
ACAAGA | 0.934
ATTATC | 1.29
ATGCGA | 1.23
CGTTTC | 1.95
GCCCCG | 1.09
ACAGGA | 1.19
TACGCA | 1.18
TTGGGC | 1.11
ATATTC | 1.32
TTTTGG | 1.42
GAAGCG | 1.43
TGATGT | 1.22
CATCCT | 1.65
GCTACA | 1.17
TAGAAT | 1.15
GCCTCT | 1.35
AGTTTC | 1.29
CGACAA | 1.31
ATGCGC | 1.22
TCTTTC | 1.38

Fetched one by one from above, 2 records:
Sequence | binding signal
ACAAGA | 0.934
ATGCGC | 1.22
